The record followed here is the supplement of paper PMC12889115.

The list shows a part of the results. Values are raw readings; no control value is given beside them.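 In the initial screen, polymyxin B was used at a concentration that permeabilizes Salmonella's outer membrane but not its inner membrane. Maximum growth was set by DMSO wells with or without polymyxin B. Since plates varied, data were ranked per plate, and compounds giving the lowest OD600 advanced as hits.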

The experiment has as its system Salmonella enterica serovar Typhimurium SL1344. Briefly: bacterial growth OD600 after 18 h with compound and polymyxin B; higher = more bacterial growth (less inhibition). The settings on record: 50 µM, Mueller-Hinton broth.

On to `COc1ccc(CC2(CCC(=O)NCc3ccccc3C(F)(F)F)CCC(=O)N2)c(F)c1` (centres undefined), for which the “bacterial growth OD600” value (polymyxin B 0.75 µg/mL) came to 0.75.

In the case of `O=C1CC[C@@H](C(=O)NCc2cccnc2Oc2ccccc2)N1`, the “bacterial growth OD600” value (polymyxin B 1 µg/mL) turned out to be 0.882.

For `CC#CCN1C(=O)NC(CCCc2ccccc2)(C2CCN(Cc3ccccc3O)CC2)C1=O` (centres undefined), the “bacterial growth OD600” value (polymyxin B 0.75 µg/mL) stood at 0.785.

In the case of `CCOC(=O)C1(Cc2cccc(OC)c2)CCN(Cc2ccc(O)c(Cl)c2)CC1`, the “bacterial growth OD600” value (polymyxin B 1 µg/mL) turned out to be 0.555.

With `O=C(Cc1cccs1)N1CCCC(c2nc(-c3cccnc3)ncc2-c2ccccc2F)C1` (centres undefined), under “polymyxin B 0.75 µg/mL”, the “bacterial growth OD600” value amounted to 0.003.

As for `COc1ccc(CC2(CCC(=O)NCC3OCCc4ccccc43)CCC(=O)N2)c(F)c1` (centres undefined), where the note is “polymyxin B 0.75 µg/mL”, the “bacterial growth OD600” value was determined as 0.866.

`O=C(c1csc2nc(-c3ccccc3)cn12)N1CCCCCC1`: under “polymyxin B 1 µg/mL”, the “bacterial growth OD600” value was 1.18.

In the case of `CCOC(=O)CCNC(=O)N1CCCC(CNS(=O)(=O)Cc2ccccc2)C1` (centres undefined), the “bacterial growth OD600” value (polymyxin B 1 µg/mL) was 0.836.

`Cn1ccnc1C(=O)C1CCCN(C(=O)c2cn(CCC3CCCCC3)nn2)C1` (centres undefined): the “bacterial growth OD600” value (polymyxin B 1 µg/mL) was 1.28.
